From patent publication US20250290045A1, “SMALL MOLECULES AND METHODS FOR MODULATING TEMPORAL CONTROL OF GELATION AND HYDROGEL MECHANICS” (The Board of Trustees of the Leland Stanford Junior …, priority 2022, published 2025) come the findings set out here.

The nature of the data set: Hydrazone reaction rates of competitors with model reactants, UV spectroscopy. It counts as physicochemical. The following applies: relative strength of the two competing reactions. The procedure: To quantify the extent that side groups impact reaction parameters, the forward (k1) and reverse (k−1) reaction rates were measured for each competitor at 50 μM (Table 2). For these reactions, the complementary reactant was chosen to be 50 μM of either benzaldehyde (BZA) or hydrazinoacetic acid (HydAA), because they are the crosslinking functionalities of HELP, and can provide key insight into DCC interactions without the complexity of the full HA and ELP polymers. (Winne, Leibler et al. 2019) The formation of a hydrazone bond was observed via absorbance with UV spectroscopy and converted to a concentration over time. An analytical solution to a second order reaction rate, assuming equal concentrations of reactants, was fit to the concentration as a function of time. (Dirksen, Dirksen et al. 2006, Mckinnon, Domaille et al. 2014)

Consider `CCCC=O` [Butyraldehyde, butyraldehyde], for which the “Keq^1/Keq^2 (competitor reaction relative to crosslinking reaction)” value was ~10^2. Turning to `NNCC(=O)O` [Hydrazinoacetic acid, hydrazinoacetic acid], the “Keq^1/Keq^2 (competitor reaction relative to crosslinking reaction)” value is ~10^0. With `NNc1ccc(C(=O)O)cc1` [Hydrazinobenzoic acid, 4-hydrazinobenzoic acid], the “Keq^1/Keq^2 (competitor reaction relative to crosslinking reaction)” value is recorded as ~10^1.
